Test results taken from the supplement of paper PMC10849652.
The list shows a part of the results.

Amino acid sequences for entries named in this document (tags omitted). A change or cut given only in a name is not applied to a line headed by its entry.
UniProt Q9Y255: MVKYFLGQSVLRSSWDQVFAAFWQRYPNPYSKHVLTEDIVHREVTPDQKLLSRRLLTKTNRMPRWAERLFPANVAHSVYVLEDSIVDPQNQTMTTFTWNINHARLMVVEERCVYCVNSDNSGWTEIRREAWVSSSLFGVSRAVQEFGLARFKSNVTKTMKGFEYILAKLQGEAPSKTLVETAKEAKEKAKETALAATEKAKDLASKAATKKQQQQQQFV
UniProt Q02156: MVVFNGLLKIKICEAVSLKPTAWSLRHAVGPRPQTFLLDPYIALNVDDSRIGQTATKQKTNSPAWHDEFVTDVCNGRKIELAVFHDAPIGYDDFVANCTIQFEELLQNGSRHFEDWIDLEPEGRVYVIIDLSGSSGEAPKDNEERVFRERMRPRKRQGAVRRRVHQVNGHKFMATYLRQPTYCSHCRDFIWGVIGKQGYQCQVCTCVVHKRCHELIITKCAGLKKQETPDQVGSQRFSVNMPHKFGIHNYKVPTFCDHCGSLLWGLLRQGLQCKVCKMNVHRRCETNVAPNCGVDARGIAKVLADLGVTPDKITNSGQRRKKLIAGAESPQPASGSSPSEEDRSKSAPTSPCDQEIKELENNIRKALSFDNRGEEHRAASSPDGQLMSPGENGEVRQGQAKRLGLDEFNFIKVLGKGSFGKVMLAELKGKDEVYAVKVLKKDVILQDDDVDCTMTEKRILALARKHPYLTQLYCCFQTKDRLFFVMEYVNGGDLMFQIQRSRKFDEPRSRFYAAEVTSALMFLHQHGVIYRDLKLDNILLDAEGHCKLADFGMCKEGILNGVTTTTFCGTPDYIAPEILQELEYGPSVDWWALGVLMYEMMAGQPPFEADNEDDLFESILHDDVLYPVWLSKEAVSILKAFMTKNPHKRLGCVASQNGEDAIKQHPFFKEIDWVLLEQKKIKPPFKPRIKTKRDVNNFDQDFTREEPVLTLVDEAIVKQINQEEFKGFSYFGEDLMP
UniProt O75569: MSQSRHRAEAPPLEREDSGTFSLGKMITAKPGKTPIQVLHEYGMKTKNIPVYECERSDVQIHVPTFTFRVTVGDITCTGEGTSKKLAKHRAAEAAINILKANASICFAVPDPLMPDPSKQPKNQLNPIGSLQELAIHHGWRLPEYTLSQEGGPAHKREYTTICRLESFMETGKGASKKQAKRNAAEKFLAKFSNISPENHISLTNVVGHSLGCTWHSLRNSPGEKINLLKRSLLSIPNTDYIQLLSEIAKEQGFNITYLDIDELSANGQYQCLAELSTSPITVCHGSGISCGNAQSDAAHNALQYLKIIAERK
UniProt O14744, whole entry, looked up: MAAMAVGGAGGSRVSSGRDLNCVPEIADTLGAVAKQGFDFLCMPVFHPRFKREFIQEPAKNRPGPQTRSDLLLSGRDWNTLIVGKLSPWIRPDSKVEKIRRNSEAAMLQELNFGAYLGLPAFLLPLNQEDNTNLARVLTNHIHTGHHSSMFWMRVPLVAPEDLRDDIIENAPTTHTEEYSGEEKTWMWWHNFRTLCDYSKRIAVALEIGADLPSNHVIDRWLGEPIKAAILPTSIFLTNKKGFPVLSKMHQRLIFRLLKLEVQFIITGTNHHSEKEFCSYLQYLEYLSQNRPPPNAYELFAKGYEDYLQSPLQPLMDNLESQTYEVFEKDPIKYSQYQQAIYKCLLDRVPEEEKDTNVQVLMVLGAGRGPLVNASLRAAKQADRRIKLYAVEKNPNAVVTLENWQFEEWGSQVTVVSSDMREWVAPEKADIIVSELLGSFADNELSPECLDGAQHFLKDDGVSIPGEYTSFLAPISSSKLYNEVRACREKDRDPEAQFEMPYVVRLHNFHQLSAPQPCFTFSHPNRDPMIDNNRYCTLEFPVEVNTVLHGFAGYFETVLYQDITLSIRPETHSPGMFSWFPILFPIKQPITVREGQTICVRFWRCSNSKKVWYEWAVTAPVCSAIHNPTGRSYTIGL
UniProt O94906: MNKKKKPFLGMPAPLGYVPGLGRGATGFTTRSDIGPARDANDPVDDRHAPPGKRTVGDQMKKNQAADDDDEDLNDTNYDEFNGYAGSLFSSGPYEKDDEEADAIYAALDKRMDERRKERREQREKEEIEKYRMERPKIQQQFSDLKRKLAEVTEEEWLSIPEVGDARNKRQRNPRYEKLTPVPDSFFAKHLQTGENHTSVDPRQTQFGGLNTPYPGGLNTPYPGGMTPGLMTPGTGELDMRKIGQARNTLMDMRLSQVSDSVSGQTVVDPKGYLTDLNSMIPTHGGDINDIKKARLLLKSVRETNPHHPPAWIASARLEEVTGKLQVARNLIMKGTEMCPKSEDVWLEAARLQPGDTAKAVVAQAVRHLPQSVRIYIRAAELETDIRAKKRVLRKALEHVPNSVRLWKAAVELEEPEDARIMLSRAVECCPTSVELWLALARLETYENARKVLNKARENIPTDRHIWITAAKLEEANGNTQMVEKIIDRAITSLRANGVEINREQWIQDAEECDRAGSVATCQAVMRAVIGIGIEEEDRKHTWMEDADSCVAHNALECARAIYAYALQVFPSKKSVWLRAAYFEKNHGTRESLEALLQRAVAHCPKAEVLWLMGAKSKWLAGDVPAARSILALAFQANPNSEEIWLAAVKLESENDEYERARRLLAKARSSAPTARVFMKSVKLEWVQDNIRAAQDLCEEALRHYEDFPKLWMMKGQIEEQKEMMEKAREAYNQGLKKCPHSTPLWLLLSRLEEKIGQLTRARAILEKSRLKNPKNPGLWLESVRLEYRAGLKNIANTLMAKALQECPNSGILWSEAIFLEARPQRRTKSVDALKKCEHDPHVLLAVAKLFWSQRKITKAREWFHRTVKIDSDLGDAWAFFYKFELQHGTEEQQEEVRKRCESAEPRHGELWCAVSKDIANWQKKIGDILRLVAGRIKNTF
UniProt P60891: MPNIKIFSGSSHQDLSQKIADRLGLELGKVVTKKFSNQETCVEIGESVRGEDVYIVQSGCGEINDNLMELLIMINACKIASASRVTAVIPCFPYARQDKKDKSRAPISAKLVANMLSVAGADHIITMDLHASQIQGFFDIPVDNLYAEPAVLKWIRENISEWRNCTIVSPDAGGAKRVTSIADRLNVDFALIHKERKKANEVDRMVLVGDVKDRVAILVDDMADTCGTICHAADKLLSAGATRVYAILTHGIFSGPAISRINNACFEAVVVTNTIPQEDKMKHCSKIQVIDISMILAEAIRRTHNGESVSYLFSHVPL
UniProt P78395, whole entry, looked up: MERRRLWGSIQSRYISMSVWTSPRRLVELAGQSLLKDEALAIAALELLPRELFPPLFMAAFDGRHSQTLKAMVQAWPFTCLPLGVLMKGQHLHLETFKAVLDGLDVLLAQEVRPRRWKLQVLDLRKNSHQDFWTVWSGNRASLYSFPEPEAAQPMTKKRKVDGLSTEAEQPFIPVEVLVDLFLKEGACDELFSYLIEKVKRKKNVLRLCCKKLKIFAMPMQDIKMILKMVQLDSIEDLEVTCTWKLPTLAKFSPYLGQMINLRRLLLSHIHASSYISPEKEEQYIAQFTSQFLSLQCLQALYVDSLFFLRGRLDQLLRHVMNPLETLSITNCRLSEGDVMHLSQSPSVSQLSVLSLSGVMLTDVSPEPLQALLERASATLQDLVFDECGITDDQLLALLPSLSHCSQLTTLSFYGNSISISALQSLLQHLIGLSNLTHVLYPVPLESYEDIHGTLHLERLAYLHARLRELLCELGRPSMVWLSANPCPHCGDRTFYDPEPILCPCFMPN
UniProt O75807, whole entry, looked up: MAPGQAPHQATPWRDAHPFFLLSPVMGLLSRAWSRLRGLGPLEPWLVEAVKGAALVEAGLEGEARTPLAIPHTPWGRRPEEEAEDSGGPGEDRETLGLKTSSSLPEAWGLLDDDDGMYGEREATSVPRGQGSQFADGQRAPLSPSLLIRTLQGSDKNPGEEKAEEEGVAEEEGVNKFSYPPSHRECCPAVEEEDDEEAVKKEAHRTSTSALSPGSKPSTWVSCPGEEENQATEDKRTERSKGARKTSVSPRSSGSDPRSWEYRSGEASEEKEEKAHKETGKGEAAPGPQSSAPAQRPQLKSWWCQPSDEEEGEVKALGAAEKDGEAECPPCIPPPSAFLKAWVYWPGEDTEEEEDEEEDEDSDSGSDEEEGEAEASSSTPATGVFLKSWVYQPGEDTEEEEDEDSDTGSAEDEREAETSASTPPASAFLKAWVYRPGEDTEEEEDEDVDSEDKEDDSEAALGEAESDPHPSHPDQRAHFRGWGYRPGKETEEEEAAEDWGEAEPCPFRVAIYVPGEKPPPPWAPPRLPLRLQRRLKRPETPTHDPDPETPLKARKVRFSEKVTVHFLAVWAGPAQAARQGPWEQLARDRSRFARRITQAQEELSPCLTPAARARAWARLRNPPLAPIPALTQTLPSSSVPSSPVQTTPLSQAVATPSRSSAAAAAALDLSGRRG
UniProt Q9Y3B1: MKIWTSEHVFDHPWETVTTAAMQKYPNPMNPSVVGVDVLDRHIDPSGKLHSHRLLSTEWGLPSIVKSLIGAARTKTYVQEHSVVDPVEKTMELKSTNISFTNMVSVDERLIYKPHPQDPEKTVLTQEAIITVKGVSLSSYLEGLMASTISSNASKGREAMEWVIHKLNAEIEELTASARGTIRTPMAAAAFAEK
UniProt P79522: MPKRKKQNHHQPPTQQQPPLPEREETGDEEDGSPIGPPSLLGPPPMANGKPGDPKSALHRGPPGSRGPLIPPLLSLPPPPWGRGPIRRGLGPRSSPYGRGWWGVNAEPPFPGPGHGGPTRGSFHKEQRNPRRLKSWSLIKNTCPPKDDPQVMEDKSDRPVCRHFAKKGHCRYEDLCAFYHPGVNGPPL
UniProt Q8N945: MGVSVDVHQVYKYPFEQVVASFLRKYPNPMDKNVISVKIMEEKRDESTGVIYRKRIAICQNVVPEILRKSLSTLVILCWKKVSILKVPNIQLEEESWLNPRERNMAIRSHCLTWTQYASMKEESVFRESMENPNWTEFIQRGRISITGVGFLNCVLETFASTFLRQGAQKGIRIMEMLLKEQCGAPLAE
UniProt P13727: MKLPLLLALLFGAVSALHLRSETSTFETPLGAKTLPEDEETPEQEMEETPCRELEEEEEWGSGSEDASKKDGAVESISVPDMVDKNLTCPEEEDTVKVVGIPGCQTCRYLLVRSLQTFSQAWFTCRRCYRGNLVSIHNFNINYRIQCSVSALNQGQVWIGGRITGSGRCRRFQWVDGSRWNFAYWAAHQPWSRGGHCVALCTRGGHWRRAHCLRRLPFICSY
UniProt P14314: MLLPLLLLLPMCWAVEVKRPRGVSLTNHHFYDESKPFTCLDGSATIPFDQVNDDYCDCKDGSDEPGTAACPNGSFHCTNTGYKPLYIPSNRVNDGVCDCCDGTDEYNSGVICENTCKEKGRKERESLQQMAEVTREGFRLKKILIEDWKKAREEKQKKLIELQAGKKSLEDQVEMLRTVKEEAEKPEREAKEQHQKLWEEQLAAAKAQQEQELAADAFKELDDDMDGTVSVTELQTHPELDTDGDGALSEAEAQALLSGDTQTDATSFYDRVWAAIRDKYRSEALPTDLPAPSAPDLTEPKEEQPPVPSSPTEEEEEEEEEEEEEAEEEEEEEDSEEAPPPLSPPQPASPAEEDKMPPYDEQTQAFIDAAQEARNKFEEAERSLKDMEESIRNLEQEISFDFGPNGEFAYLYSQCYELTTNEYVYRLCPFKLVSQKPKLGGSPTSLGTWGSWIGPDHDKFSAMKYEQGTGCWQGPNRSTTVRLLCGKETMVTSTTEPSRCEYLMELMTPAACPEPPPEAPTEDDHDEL
UniProt O14668: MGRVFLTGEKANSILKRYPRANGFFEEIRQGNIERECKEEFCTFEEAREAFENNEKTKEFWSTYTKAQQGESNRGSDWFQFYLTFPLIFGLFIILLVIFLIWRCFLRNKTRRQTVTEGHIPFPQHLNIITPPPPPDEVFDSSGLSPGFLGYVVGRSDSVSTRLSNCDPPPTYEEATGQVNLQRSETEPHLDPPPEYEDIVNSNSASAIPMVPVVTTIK
UniProt Q16378: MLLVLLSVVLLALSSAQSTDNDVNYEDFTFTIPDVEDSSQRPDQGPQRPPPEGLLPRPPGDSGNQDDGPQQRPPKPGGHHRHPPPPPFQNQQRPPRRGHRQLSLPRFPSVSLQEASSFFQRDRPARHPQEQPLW

Legend:
Experiment in all cases: log2 fold change, soluble protein after heating vs DMSO (PISA); higher = thermal stabilisation; K562 cells, 10 uM, 30 min; active = over 0.2 and 3.5 SD of the protein, either way, in both replicates (recomputed)
[1] = compound: CC1=C(C=C(C=C1)NC(=O)C2=CC(=CC=C2)C(C)(C)C#N)NC3=CC4=C(C=C3)N=CN(C4=O)C
In short: (§1)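 Soluble protein was quantified by TMTpro 16plex LC-MS/MS after channel sums were equalised. It was obtained as the supernatant after 21,000xg for 90 min from pooled aliquots of K562 cells (2×10^6 cells/mL, 10 μM compound, 30 min) heated for 3 min across 48°C-58°C and extracted in PBS with 0.5% NP-40 at 4°C. Thermal stability values are relative to control samples and come from duplicates. They are given as log2 fold changes.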

[2] = compound: CC1=CC=C(C=C1)SC2=C3C=C(SC3=CN=C2)C(=O)N
In short: as §1

[3] = compound: CC1=NC(=CC=C1)C2=C(N=C(N2)C(C)(C)C)C3=CC4=NC=CN=C4C=C3
In short: as §1

[4] = compound: CCCCN(Cc1ccc(C(=O)NO)cc1)C(=O)Nc1ccccc1 [Nexturastat A]
In short: as §1

[5] = compound: CCCS(=O)(=O)Nc1ccc(F)c(C(=O)c2c[nH]c3ncc(-c4ccc(Cl)cc4)cc23)c1F [vemurafenib]
In short: as §1

[6] = compound: CCCS(=O)(=O)Nc1ccc(F)c(C(=O)c2c[nH]c3ncc(Cl)cc23)c1F
In short: as §1

[7] = compound: CCCc1cc(C)[nH]c(=O)c1CNC(=O)c1cc(-c2ccnc(N3CCN(C)CC3)c2)cc2c1cnn2C(C)C
In short: as §1

[8] = compound: CCN(CC)Cc1ccc2cc(COC(=O)Nc3ccc(C(=O)NO)cc3)ccc2c1 [givinostat]
In short: as §1

[9] = compound: CCN(CCCOc1ccc2c(Nc3cc(CC(=O)Nc4cccc(F)c4)[nH]n3)ncnc2c1)CCOP(=O)(O)O [barasertib]
In short: as §1

[10] = compound: CC1=C(C=C(C=C1)NC(=O)C2=CC(=CC=C2)N(C)C)NC(=O)C3=CC=C(C=C3)O
In short: as §1

Target | log2 fold change [1] | log2 fold change [2] | log2 fold change [3] | log2 fold change [4] | log2 fold change [5] | log2 fold change [6] | log2 fold change [7] | log2 fold change [8] | log2 fold change [9] | log2 fold change [10]
PRELID1 (UniProt Q9Y255) | inactive: 0.011 | inactive: -0.034 | inactive: -0.253 | inactive: 0.279 | inactive: 0.077 | inactive: -0.149 | inactive: 0.075 | inactive: 0.093 | inactive: -0.12 | –
PRKCE (UniProt Q02156) | inactive: 0.041 | inactive: -0.012 | inactive: 0.048 | inactive: -0.242 | inactive: 0.077 | inactive: 0.085 | inactive: -0.02 | active: -0.393 | inactive: 0.013 | –
PRKRA (UniProt O75569) | inactive: 0.091 | inactive: -0.031 | inactive: -0.263 | inactive: 0.363 | inactive: -0.147 | inactive: 0.07 | inactive: 0.124 | – | inactive: -0.067 | inactive: 0.039
PRMT5 (UniProt O14744) | inactive: 0.018 | inactive: -0.013 | inactive: 0.033 | inactive: -0.03 | inactive: -0.015 | inactive: -0.018 | inactive: -0.004 | inactive: -0.022 | inactive: 0.007 | inactive: -0.002
PRPF6 (UniProt O94906) | inactive: 0.094 | – | inactive: 0.209 | inactive: 0.011 | – | – | – | inactive: 0.211 | inactive: 0.261 | inactive: 0.029
PRPS1 (UniProt P60891) | inactive: 0.009 | inactive: -0.003 | inactive: -0.014 | inactive: 0 | inactive: -0.017 | inactive: 0.022 | inactive: -0.054 | inactive: -0.015 | inactive: -0.071 | inactive: -0.01
PRAME (UniProt P78395) | inactive: -0.027 | inactive: -0.017 | inactive: -0.078 | inactive: 0.132 | inactive: 0.069 | inactive: 0.137 | inactive: 0.015 | inactive: 0.031 | inactive: 0.087 | inactive: -0.01
PPP1R15A (UniProt O75807) | inactive: -0.534 | inactive: -0.16 | inactive: 0.061 | inactive: 0.225 | – | inactive: -0.289 | – | inactive: 0.215 | – | –
PRELID3B (UniProt Q9Y3B1) | – | inactive: 0.081 | – | inactive: 0.194 | – | inactive: -0.049 | – | inactive: 0.039 | – | –
PRR3 (UniProt P79522) | inactive: 0.127 | – | inactive: -0.045 | inactive: 0.035 | – | – | – | – | – | –
PRELID2 (UniProt Q8N945) | – | – | inactive: -0.086 | – | – | – | – | – | – | –
PRG2 (UniProt P13727) | – | inactive: -0.116 | inactive: -0.082 | inactive: -0.038 | inactive: 0.033 | inactive: -0.037 | inactive: 0.119 | inactive: -0.027 | – | –
PRKCSH isoform 2 (UniProt P14314) | – | – | inactive: 0.057 | inactive: 0.049 | inactive: 0 | – | inactive: -0.498 | inactive: 0.045 | inactive: 0.013 | inactive: -0.185
PRRG1 (UniProt O14668) | – | inactive: 0.004 | inactive: 0.144 | – | – | inactive: -0.007 | inactive: -0.055 | – | – | inactive: 0.004
PRR4 (UniProt Q16378) | – | – | inactive: -0.163 | – | – | – | inactive: 0.131 | – | inactive: 0.203 | inactive: -0.081

An excerpt of these results, in markdown:

| Target | log2 fold change [1] | log2 fold change [2] | log2 fold change [3] | log2 fold change [4] | log2 fold change [5] | log2 fold change [6] | log2 fold change [7] | log2 fold change [8] | log2 fold change [9] | log2 fold change [10] |
| --- | --- | --- | --- | --- | --- | --- | --- | --- | --- | --- |
| PPP1R15A (UniProt O75807) | inactive: -0.534 | inactive: -0.16 | inactive: 0.061 | inactive: 0.225 | – | inactive: -0.289 | – | inactive: 0.215 | – | – |
| PRELID3B (UniProt Q9Y3B1) | – | inactive: 0.081 | – | inactive: 0.194 | – | inactive: -0.049 | – | inactive: 0.039 | – | – |
| PRR3 (UniProt P79522) | inactive: 0.127 | – | inactive: -0.045 | inactive: 0.035 | – | – | – | – | – | – |
